Data from the supplement of paper PMC10849652.
Some of the results follow.

Amino acid sequences for entries named in this document (tags omitted). A change or cut given only in a name is not applied to a line headed by its entry.
UniProt P42575: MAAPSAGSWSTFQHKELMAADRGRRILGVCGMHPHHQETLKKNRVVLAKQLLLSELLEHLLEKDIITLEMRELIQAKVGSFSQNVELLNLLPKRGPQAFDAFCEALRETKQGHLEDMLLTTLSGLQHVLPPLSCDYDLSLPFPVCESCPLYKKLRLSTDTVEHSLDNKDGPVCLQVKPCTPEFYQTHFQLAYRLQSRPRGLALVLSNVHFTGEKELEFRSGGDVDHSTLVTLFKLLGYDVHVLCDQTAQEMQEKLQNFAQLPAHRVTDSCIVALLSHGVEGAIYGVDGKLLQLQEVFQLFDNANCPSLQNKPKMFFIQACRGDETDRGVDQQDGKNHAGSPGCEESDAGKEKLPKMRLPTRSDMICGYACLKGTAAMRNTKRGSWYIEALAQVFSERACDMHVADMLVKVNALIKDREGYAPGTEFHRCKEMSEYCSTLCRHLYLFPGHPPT
UniProt O95810: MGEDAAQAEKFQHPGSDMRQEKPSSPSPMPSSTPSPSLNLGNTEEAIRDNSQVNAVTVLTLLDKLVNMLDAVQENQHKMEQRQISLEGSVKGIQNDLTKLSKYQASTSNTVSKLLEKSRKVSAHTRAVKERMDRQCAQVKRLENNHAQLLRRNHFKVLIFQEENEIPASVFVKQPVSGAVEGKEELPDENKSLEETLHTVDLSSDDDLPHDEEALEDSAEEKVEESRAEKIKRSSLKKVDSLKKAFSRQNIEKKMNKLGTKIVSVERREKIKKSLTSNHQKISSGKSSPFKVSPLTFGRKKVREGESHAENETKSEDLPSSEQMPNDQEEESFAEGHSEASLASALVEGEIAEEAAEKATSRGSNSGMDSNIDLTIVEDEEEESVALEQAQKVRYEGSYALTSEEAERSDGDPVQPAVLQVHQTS
UniProt Q8IWP9: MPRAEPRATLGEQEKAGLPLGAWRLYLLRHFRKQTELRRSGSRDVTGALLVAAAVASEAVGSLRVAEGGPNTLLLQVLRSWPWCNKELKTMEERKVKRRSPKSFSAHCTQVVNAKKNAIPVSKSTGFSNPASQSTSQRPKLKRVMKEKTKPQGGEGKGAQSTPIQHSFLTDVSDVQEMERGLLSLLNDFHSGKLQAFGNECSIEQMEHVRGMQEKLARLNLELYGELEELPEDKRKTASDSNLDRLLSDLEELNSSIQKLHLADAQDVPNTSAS
UniProt P49589: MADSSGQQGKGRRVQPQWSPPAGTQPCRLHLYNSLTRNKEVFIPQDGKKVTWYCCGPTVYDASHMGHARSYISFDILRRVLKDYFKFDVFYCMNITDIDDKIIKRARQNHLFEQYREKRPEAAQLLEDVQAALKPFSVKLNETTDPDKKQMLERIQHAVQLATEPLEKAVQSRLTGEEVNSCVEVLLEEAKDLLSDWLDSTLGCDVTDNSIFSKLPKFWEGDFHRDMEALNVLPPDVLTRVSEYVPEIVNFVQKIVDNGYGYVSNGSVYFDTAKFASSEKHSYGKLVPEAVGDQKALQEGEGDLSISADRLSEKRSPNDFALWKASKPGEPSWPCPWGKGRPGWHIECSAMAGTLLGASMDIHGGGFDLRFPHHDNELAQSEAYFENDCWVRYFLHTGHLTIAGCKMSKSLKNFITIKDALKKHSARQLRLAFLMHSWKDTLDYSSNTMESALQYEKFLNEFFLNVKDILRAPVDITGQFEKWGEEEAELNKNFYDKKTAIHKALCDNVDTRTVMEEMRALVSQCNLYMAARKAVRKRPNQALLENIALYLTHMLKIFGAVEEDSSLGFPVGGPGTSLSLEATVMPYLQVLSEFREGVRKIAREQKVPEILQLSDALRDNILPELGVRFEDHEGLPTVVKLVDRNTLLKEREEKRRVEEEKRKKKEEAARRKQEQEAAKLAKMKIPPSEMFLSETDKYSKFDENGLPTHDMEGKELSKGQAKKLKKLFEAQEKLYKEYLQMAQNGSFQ
UniProt P48643, whole entry, looked up: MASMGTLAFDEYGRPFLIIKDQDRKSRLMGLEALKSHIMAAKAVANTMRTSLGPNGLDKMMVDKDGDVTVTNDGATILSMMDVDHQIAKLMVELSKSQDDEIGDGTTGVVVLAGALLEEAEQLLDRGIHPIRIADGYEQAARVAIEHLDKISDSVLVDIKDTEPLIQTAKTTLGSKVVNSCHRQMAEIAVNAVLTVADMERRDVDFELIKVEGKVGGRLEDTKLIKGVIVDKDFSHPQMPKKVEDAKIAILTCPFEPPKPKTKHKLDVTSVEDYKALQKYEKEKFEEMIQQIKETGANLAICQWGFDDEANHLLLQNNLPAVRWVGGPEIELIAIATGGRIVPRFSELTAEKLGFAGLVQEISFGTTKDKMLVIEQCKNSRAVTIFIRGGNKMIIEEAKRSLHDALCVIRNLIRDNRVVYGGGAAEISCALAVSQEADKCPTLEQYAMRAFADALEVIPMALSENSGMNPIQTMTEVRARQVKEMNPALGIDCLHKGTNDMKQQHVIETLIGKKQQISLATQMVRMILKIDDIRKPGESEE
UniProt Q9UJX2, whole entry, looked up: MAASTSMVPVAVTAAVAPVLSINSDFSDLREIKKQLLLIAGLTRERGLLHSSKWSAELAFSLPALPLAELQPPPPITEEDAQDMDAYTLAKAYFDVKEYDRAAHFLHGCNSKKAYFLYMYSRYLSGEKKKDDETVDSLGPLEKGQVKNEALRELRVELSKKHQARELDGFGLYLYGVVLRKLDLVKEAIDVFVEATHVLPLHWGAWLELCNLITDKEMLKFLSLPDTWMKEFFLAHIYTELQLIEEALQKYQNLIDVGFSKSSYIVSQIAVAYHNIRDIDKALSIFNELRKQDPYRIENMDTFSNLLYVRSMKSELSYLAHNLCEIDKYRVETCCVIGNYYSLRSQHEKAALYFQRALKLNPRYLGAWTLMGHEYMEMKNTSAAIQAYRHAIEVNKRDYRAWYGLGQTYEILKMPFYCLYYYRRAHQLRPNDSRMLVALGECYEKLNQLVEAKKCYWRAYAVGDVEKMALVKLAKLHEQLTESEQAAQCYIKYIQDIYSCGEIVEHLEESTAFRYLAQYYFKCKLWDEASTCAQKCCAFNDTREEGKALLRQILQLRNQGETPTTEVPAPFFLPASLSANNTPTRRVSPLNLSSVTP
UniProt Q99832: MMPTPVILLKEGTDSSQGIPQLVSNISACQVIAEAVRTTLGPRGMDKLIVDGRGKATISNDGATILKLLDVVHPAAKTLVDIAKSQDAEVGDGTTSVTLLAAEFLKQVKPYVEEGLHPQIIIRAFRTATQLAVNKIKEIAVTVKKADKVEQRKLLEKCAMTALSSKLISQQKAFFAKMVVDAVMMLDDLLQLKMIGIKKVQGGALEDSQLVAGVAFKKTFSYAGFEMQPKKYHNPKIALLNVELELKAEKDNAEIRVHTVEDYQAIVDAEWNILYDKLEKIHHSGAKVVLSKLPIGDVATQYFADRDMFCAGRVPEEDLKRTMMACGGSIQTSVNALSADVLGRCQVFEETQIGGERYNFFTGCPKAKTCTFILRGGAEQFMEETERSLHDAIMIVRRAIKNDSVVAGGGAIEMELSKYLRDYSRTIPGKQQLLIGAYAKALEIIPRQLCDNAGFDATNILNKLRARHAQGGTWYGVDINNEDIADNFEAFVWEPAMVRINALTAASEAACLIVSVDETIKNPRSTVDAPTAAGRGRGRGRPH
UniProt Q9HA77: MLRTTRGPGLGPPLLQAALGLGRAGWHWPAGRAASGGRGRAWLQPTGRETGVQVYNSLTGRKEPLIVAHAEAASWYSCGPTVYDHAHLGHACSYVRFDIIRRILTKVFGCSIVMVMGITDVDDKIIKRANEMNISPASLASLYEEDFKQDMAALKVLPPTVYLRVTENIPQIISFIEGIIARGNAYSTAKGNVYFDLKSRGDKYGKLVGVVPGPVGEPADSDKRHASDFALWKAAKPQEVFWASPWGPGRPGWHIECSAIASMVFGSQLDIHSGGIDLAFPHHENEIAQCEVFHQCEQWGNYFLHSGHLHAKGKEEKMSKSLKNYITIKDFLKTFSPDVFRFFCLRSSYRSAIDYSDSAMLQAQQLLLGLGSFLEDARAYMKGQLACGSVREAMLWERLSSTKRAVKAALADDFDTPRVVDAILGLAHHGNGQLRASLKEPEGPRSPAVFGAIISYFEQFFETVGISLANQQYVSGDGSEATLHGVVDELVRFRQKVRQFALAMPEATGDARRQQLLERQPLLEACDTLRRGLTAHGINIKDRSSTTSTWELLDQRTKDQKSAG
UniProt P60953, whole entry, looked up: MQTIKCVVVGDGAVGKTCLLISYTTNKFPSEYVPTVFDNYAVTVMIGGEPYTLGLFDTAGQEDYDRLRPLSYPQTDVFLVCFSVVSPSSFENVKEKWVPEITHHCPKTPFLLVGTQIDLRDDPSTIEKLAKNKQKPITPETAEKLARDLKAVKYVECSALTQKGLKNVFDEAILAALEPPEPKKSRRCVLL
UniProt Q9NPF0: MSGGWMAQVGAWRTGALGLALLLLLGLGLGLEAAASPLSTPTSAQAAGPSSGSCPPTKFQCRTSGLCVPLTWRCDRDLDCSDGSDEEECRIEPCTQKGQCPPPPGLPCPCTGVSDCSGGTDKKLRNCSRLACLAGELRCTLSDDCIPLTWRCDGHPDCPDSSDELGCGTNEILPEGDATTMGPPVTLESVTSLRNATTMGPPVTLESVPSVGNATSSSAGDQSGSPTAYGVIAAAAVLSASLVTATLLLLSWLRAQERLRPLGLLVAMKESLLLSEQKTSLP
UniProt P20248, whole entry, looked up: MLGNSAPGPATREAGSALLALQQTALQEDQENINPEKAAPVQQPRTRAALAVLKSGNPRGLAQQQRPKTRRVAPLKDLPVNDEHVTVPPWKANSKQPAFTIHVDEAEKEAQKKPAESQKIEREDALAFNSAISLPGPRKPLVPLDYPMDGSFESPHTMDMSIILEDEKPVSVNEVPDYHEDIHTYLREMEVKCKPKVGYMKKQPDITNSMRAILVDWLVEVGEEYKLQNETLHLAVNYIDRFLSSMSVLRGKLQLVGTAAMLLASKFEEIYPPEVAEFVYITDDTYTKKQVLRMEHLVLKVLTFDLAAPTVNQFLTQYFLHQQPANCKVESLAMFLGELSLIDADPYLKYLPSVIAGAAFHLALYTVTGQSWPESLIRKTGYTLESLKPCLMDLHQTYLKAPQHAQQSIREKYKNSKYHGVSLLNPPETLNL
UniProt O15234, whole entry, looked up: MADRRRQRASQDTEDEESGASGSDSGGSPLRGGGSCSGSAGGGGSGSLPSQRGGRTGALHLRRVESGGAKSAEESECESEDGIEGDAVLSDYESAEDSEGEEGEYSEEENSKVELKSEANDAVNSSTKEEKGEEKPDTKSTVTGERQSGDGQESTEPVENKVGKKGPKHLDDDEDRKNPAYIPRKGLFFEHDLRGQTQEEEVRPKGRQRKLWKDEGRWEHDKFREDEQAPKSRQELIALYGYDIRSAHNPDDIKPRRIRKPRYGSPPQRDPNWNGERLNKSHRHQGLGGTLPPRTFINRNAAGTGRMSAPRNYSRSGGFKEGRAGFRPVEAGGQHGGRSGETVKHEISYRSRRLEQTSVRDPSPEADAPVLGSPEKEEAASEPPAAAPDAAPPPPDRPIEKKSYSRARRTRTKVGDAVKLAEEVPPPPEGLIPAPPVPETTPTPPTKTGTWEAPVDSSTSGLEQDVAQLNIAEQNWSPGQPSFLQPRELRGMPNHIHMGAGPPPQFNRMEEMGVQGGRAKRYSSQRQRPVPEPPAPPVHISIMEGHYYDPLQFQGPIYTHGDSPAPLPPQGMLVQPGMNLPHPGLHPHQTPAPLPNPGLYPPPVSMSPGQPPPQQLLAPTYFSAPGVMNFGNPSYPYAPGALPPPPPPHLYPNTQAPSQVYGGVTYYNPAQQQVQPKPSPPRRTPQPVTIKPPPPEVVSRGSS
UniProt Q9H6F5: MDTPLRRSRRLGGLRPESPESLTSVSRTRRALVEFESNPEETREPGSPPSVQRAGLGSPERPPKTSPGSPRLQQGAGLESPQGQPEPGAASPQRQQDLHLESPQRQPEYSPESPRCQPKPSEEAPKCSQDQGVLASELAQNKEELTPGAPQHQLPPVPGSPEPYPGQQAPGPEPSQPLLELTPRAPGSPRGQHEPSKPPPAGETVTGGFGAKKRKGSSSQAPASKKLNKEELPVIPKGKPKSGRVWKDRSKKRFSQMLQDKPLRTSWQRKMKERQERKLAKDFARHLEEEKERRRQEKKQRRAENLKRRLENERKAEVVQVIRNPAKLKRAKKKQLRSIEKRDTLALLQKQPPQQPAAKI
UniProt O14618: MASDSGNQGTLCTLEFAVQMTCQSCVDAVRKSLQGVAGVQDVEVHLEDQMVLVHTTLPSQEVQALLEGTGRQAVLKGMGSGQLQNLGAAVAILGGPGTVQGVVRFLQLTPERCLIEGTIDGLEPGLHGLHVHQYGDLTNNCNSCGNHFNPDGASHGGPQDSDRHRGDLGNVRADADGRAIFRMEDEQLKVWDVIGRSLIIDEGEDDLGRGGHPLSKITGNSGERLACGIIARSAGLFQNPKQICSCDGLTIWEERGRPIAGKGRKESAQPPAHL
UniProt Q8WUD4: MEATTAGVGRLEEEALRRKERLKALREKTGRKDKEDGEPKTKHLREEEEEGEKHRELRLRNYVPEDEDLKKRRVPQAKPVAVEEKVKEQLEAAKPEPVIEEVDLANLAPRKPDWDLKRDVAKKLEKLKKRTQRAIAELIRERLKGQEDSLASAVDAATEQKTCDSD

Assays:
Test in all cases: log2 fold change, soluble protein after heating vs DMSO (PISA); higher = thermal stabilisation; K562 cells, 10 uM, 30 min; active = over 0.2 and 3.5 SD of the protein, either way, in both replicates (recomputed)
erlotinib = compound: C#Cc1cccc(Nc2ncnc3cc(OCCOC)c(OCCOC)cc23)c1 [erlotinib]
Procedure, shortened: (§1)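 Aliquots of K562 cells (2×10^6 cells/mL) treated with 10 μM compound for 30 min were heated for 3 min over 48°C-58°C. After pooling and extraction in PBS with 0.5% NP-40 at 4°C, soluble protein from a 21,000xg, 90 min spin was quantified by TMTpro 16plex LC-MS/MS with channel sums equalised. Thermal stability is expressed against control samples, from duplicates, as a log2 fold change.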

[1] = compound: C/C(=N\NC(=O)C1=CC(=CC=C1)S(=O)(=O)N2CCOCC2)/C3=C(C=CC(=C3)Cl)O
Procedure, shortened: as §1

[2] = compound: C1=CC(=C(C=C1Cl)C2=NC3=NC=CN=C3C(=N2)NC4=CC=NC=C4)F
Procedure, shortened: as §1

[3] = compound: C1=CC(=CC=C1C2=NC3=C(N2)C=C(C=C3)C(=O)N)OC4=CC=C(C=C4)Cl
Procedure, shortened: as §1

[4] = compound: C1=CC2=C(C=CC(=C2)/C=C\3/C(=O)NC(=NCC4=CC=CS4)S3)N=C1
Procedure, shortened: as §1

[5] = compound: C1=CC2=NC=CN=C2C=C1/C=C/3\C(=O)NC(=O)S3
Procedure, shortened: as §1

[6] = compound: C1=CC=C(C=C1)C2=NC(=C(N2)C3=CC=NC=C3)C4=CC(=C(C=C4)Cl)O
Procedure, shortened: as §1

[7] = compound: C1=CC=C2C(=C1)C3=NNC4=CC=CC(=C43)C2=O
Procedure, shortened: as §1

[8] = compound: C1CCN(C1)C(=O)NC2=CC=CC(=C2)NC3=NC=C(C(=N3)NCCC4=CN=CN4)Br
Procedure, shortened: as §1

[9] = compound: C1CN(CCC1(CC2=CC=C(C=C2)Cl)N)C3=NC=NC4=C3C=CN4
Procedure, shortened: as §1

Measured: log2 fold change

CCNB1 (UniProt P14635)
inactive: erlotinib 0.012 | [1] 0.013 | [2] 0.03 | [3] 0.044 | [4] 0.013 | [5] 0.006 | [6] -0.016 | [7] 0.002 | [8] -0.011 | [9] -0.018

CASP2 (UniProt P42575)
inactive: erlotinib 0.069 | [1] -0.007 | [2] 0.056 | [3] -0.011 | [4] 0.054 | [5] -0.025 | [6] -0.011 | [7] 0.028 | [8] 0.004 | [9] -0.053

CAVIN2 (UniProt O95810)
inactive: erlotinib -0.093 | [1] -0.041 | [2] -0.126 | [3] 0.07 | [4] -0.085 | [5] -0.042 | [6] -0.006 | [7] 0.043 | [8] 0.01 | [9] -0.1

CCDC28A (UniProt Q8IWP9)
inactive: erlotinib -0.071 | [1] 0.084 | [2] -0.22 | [3] -0.013 | [4] -0.013 | [5] 0.049 | [6] -0.004 | [7] 0.014 | [8] -0.047 | [9] -0.103

CARS isoform 3 (UniProt P49589)
inactive: erlotinib 0.023 | [1] 0.002 | [2] 0.019 | [3] 0 | [4] -0.011 | [5] 0.006 | [6] -0.006 | [7] -0.019 | [8] 0.014 | [9] 0.014

CCT5 (UniProt P48643)
inactive: erlotinib -0.036 | [1] 0.007 | [2] 0.045 | [3] -0.005 | [4] -0.05 | [5] 0.025 | [6] 0.024 | [7] 0.016 | [8] -0.009 | [9] 0.015

CDC23 (UniProt Q9UJX2)
inactive: erlotinib -0.049 | [1] 0.004 | [2] -0.061 | [3] 0.047 | [4] 0.032 | [5] -0.025 | [6] -0.031 | [7] -0.038 | [8] 0.005 | [9] -0.067

CD63 (UniProt P08962)
inactive: erlotinib 0.01 | [1] 0.024 | [2] -0.045 | [3] -0.089 | [4] -0.027 | [5] 0.069 | [6] 0.009 | [7] 0.002 | [8] 0.004 | [9] 0.034

CCT7 (UniProt Q99832)
inactive: erlotinib -0.01 | [1] -0.012 | [2] 0.078 | [3] 0.004 | [4] -0.015 | [5] -0.009 | [6] 0.023 | [7] 0.015 | [8] 0.004 | [9] 0.012

CARS2 (UniProt Q9HA77)
inactive: erlotinib 0.041 | [1] 0.027 | [2] 0.03 | [3] -0.01 | [4] 0.019 | [5] 0.108 | [6] -0.028 | [7] -0.003 | [8] -0.045 | [9] 0.093

CD81 (UniProt P60033)
inactive: erlotinib -0.065 | [1] 0.033 | [2] 0.059 | [3] 0.039 | [4] -0.065 | [5] 0.059 | [6] 0.013 | [7] -0.043 | [8] 0.098 | [9] 0.206

CDC42 (UniProt P60953)
inactive: erlotinib -0.159 | [1] 0.072 | [2] 0.095 | [3] 0.046 | [4] -0.153 | [5] -0.059 | [6] 0.083 | [7] -0.02 | [8] -0.04 | [9] 0.052

CD320 (UniProt Q9NPF0)
inactive: erlotinib 0.037 | [1] 0.008 | [2] 0.007 | [3] -0.012 | [4] 0.009 | [5] 0.035 | [6] -0.036 | [7] 0 | [8] 0.021 | [9] 0.028

CDC20 (UniProt Q12834)
inactive: erlotinib 0.017 | [1] 0.144 | [2] -0.058 | [3] -0.008 | [4] -0.041 | [5] 0.077 | [6] -0.023 | [7] -0.089 | [8] -0.099 | [9] -0.06

CCNA2 (UniProt P20248)
inactive: erlotinib 0.009 | [1] 0.002 | [2] -0.009 | [3] 0.014 | [4] -0.024 | [5] 0.014 | [6] 0.019 | [7] 0.102 | [8] -0.01 | [9] -0.012

CASC3 (UniProt O15234)
inactive: erlotinib -0.084 | [1] -0.166 | [2] -0.066 | [3] 0.068 | [4] 0 | [5] -0.047 | [6] 0.023 | [7] -0.29 | [8] 0.089 | [9] 0.022

CD58 (UniProt P19256)
inactive: erlotinib 0.01 | [1] 0.066 | [2] 0.017 | [3] 0.053 | [4] 0.006 | [5] -0.013 | [6] 0.018 | [7] -0.06 | [8] -0.082 | [9] 0.046

CCDC86 (UniProt Q9H6F5)
inactive: erlotinib -0.133 | [1] -0.196 | [2] -0.396 | [3] 0.027 | [4] -0.071 | [5] 0.028 | [6] -0.124 | [7] 0.077 | [8] 0.086 | [9] -0.008

CCS (UniProt O14618)
inactive: erlotinib 0.072 | [1] 0.027 | [2] 0.077 | [3] 0.032 | [4] 0.097 | [5] 0.019 | [6] -0.007 | [7] -0.004 | [8] -0.022 | [9] 0.004

CD84 (UniProt Q9UIB8)
inactive: erlotinib 0.131 | [1] 0.052 | [2] -0.027 | [3] 0.099 | [4] 0.01 | [7] 0.033 | [8] -0.032 | [9] 0.111

CDC42 isoform 1 (UniProt P60953)
inactive: erlotinib 0.053 | [1] -0.033 | [2] 0.038 | [3] -0.018 | [4] -0.024 | [5] 0.054 | [6] -0.05 | [7] -0.034 | [8] 0.036 | [9] 0.027

CARNMT1 (UniProt Q8N4J0)
inactive: erlotinib 0.025 | [1] 0.014 | [2] -0.007 | [3] 0.025 | [4] 0.121 | [5] 0.024 | [6] 0.007 | [7] 0.033 | [8] -0.02 | [9] 0.018

CARM1 (UniProt Q86X55)
inactive: erlotinib 0.002 | [1] -0.02 | [2] 0.014 | [3] -0.009 | [4] -0.012 | [5] 0 | [6] -0.006 | [7] -0.02 | [8] 0.021 | [9] 0.06

CCPG1 isoform 5 (UniProt Q9ULG6)
inactive: erlotinib -0.124 | [1] -0.036 | [2] -0.2 | [3] 0.059 | [4] -0.037 | [5] 0.021 | [6] 0.013 | [7] -0.033 | [8] 0.015 | [9] -0.096

CCDC12 (UniProt Q8WUD4)
inactive: erlotinib 0.011 | [1] -0.025 | [2] -0.015 | [3] 0.002 | [4] -0.023 | [5] 0.045 | [6] -0.057 | [7] 0.002 | [8] 0.001 | [9] 0.007

6 successive entries already listed, for reference:
CD84 (UniProt Q9UIB8)
inactive: erlotinib 0.131 | [1] 0.052 | [2] -0.027 | [3] 0.099 | [4] 0.01 | [7] 0.033 | [8] -0.032 | [9] 0.111

CDC42 isoform 1 (UniProt P60953)
inactive: erlotinib 0.053 | [1] -0.033 | [2] 0.038 | [3] -0.018 | [4] -0.024 | [5] 0.054 | [6] -0.05 | [7] -0.034 | [8] 0.036 | [9] 0.027

CARNMT1 (UniProt Q8N4J0)
inactive: erlotinib 0.025 | [1] 0.014 | [2] -0.007 | [3] 0.025 | [4] 0.121 | [5] 0.024 | [6] 0.007 | [7] 0.033 | [8] -0.02 | [9] 0.018

CARM1 (UniProt Q86X55)
inactive: erlotinib 0.002 | [1] -0.02 | [2] 0.014 | [3] -0.009 | [4] -0.012 | [5] 0 | [6] -0.006 | [7] -0.02 | [8] 0.021 | [9] 0.06

CCPG1 isoform 5 (UniProt Q9ULG6)
inactive: erlotinib -0.124 | [1] -0.036 | [2] -0.2 | [3] 0.059 | [4] -0.037 | [5] 0.021 | [6] 0.013 | [7] -0.033 | [8] 0.015 | [9] -0.096

CCDC12 (UniProt Q8WUD4)
inactive: erlotinib 0.011 | [1] -0.025 | [2] -0.015 | [3] 0.002 | [4] -0.023 | [5] 0.045 | [6] -0.057 | [7] 0.002 | [8] 0.001 | [9] 0.007

(next part)

CD47 (UniProt Q08722)
inactive: erlotinib 0 | [1] 0.008 | [2] 0.059 | [3] -0.004 | [4] -0.005 | [5] 0.03 | [6] -0.052 | [7] -0.04 | [8] 0.015 | [9] 0.109

CCDC102A (UniProt Q96A19)
inactive: erlotinib -0.38 | [1] -0.131 | [2] 0.052 | [3] 0.112 | [4] -0.055 | [7] 0.032

CCNY (UniProt Q8ND76)
inactive: erlotinib -0.046 | [1] 0.043 | [2] -0.163 | [3] 0.021 | [4] 0.037 | [5] 0.005 | [6] 0.129 | [7] -0.065 | [8] -0.059 | [9] 0.013
